The subject of this series is calf thymus DNA. As to the kind of experiment: Calf thymus DNA alkylation, quantitation of adenine N3 adduct. In kind it is biochemical. The settings on record: 4° C. On the procedure: This was addressed through a study of the alkylation of calf thymus DNA. Optimized conditions for the alkylation were established for (−)-44 on an analytical scale (100 μg of agent). For this purpose, the long-wavelength UV absorption of the agent and the adduct provided a useful quantitative measure of the adenine adduct, unreacted starting material and any side products (solvolysis or rearrangement), Table 3. Analytical HPLC analysis was used to confirm the identity of the products through correlation of retention times and UV spectral data with authentic materials. The preparative DNA alkylation reaction and subsequent isolation of (+)-66 was carried out under conditions determined to provide complete consumption of the agent in the presence of a large excess of DNA Thus, extraction (EtOAc) of the aqueous buffer solution containing calf thymus DNA following alkylation (4° C., 72 h, 150 bp) afforded no recovered (−)-44, and only a small amount (<5%) of the rearranged product 65. Conducting the reaction at 4° C. in the presence of a large excess of DNA precluded competitive solvolysis. Thermal treatment of the alkylated DNA in aqueous 10 mM sodium phosphate buffer (100° C., 30 min, pH 7.0) followed by EtOAc extraction provided 66 in 90-95% conversion, ≧95% purity (by HPLC). Repeating this thermal treatment provided little or no additional adduct. No trace of a competing guanine adduct could be detected. This high conversion to a single adduct established that 44 participates exclusively in the adenine N3 alkylation reaction under the conditions examined.

Each structure is given as a SMILES string. Bounds are passed on as bounds.

Turning to `COc1cc2cc(C(=O)N3CC4CC45C(=O)c4ccccc4C=C35)[nH]c2c(OC)c1OC` (single isomer, unassigned; (-)) [(−)-iso-CBI-TMI, 2-[(5,6,7-Trimethoxyindol-2-yl)carbonyl]-1,2,9,9a-tetrahydrocyclopropa[c]benzo[f]indol-8-one], under “72 h, 150 bp”, the “rearranged product 65 in EtOAc extract” value is < 5% and the “unreacted / recovered 44” value was found to be 0%. The “unreacted / recovered 44” value (72 h, 150 bp, listed as (−)-44) is given as “no recovered”.

On to `COc1cc2cc(C(=O)N3CC4CC45C(=O)c4ccccc4C=C35)[nH]c2c(OC)c1OC` (racemic) [compound 44, 2-[(5,6,7-Trimethoxyindol-2-yl)carbonyl]-1,2,9,9a-tetrahydrocyclopropa[c]benzo[f]indol-8-one], for which the “rearranged product 65” value (72 h, 75 base-pair equiv, analytical scale, HPLC/UV) was <5%; the “rearranged product 65” value (72 h, 150 base-pair equiv, analytical scale, HPLC/UV) was <5%; the “rearranged product 65” value (72 h, 150 base-pair equiv, preparative scale) is listed as <5%; the “rearranged product 65” value (120 h, 150 base-pair equiv, preparative scale) is reported as <5%.
